Reference: patent US20100179122A1 (priority 2005, published 2010)
pIC50: −log10 of the molar value. Some results were stated once for a whole list of compounds, not compound by compound.

Key:
T-lymphoid cells = experiment: Cytotoxicity by microscopic examination of the cells in the spread assay; format: cell-based; conditions: at the compound's IC95 concentration
[1] = molecular target: T1, mutant HIV reverse transcriptase (K103N mutation) (Human immunodeficiency virus type 1 group M subtype B, UniProt P04585, K690N); experiment: Analogous RT inhibition assay, K103N mutant; format: biochemical; conditions: reverse transcriptase with K103N mutation; tested up to 20 micromolar
T1 construct: mutations that occur in the reverse transcriptase segment of the pol gene; made in house
Experimental: (§1) 100 μL reaction mixtures were initiated with a combination of primer-template substrate (10 nM final concentration) and dNTPs (0.6 μM dNTPs, 0.75 μM [^3H]-dGTP). The heterodimeric nucleic acid substrate was generated by annealing the DNA primer pD500 (described in Shaw-Reid et al., J. Biol. Chem., 278: 2777-2780; obtained from Integrated DNA Technologies) to t500, a 500 nucleotide RNA template created by in vitro transcription (see Shaw-Reid et al., J. Biol. Chem., 278: 2777-2780). After 1 hour incubation at 37° C., reactions were quenched by 10 μl, streptavidin scintillation proximity assay beads (10 mg/mL, from Amersham Biosciences) in 0.5 M EDTA, pH 8. Microtiter plates were incubated an additional 10 minutes at 37° C. prior to quantification via Topcount (Packard).
(§2) Analogous assays were conducted substituting mutant HIV strains to determine the […] inhibition of compounds of the present invention against mutant HIV reverse transcriptase. In one strain the reverse transcriptase has the Y181C mutation and in the other strain the reverse transcriptase has the K103N mutation. The mutations were generated with the […] site-directed mutagenesis kit (Stratagene). […] The compounds set forth in the other Examples were not tested in the Y181C assay. […] The compounds set forth in the other Examples were not tested in the K103N assay.

[2] = molecular target: T2, mutant HIV reverse transcriptase (Y181C mutation) (Human immunodeficiency virus type 1 group M subtype B, UniProt P04585, Y768C); experiment: Analogous RT inhibition assay, Y181C mutant; format: biochemical; conditions: reverse transcriptase with Y181C mutation; tested up to 20 micromolar
T2 construct: mutations that occur in the reverse transcriptase segment of the pol gene; made in house
Experimental: as §1, §2

Molecule | cytotoxicity at IC95 concentration (T-lymphoid cells) | pIC50 [1] | pIC50 [2]
O=C(NCCCc1ccccc1)Nc1[nH]c2ccc(Br)cc2c1S(=O)(=O)N1CCCC1 [Example 90, N-[5-bromo-3-(pyrrolidin-1-ylsulfonyl)-1H-indol-2-yl]-N′-(3-phenylpropyl)urea] | no cytotoxicity |  | 
N-[5-bromo-3-(pyrrolidin-1-ylsulfonyl)-1H-indol-2-yl]-N-cyclopropylurea [Example 76] |  | > 6.00 | 
N-[5-bromo-3-(pyrrolidin-1-ylsulfonyl)-1H-indol-2-yl]-N-ethylurea [Example 82] |  | > 6.00 | < 4.70
